Experimental data: PubChem BioAssay AID1259405 (NCATS, 2018)
Assay: 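Knock-downs that lift recombinant protein yield in hamster ovary cells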 (primary screen). System: Chinese hamster CHO-K1 ovary cells with stable secreted eGFP expression. Reagents: single siRNA against mouse genes, 0.8 pmol siRNA per well (2 µl of 400 nM stock). Duration: 3 days. Read-out: 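Per-well intracellular GFP measured by laser scanning cytometry, plus viability from ATP luminescence, each relative to plate median of non-targeting control wells, in %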. Reading the numbers: GFP, % of control: higher = more GFP per well, higher productivity; viability (ATP), % of control: higher = more viable cells (more ATP). Active means: 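a knock-down is called active if GFP reaches 120% or more of non-targeting control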.
Shown is a random part of about 50,000 deposited reagents. Over the whole deposit, about 4,000 (8%) were called active. 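Mouse siRNA library applied to hamster cells; one well for each siRNA.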 The numbers tell different reagents against one gene apart.

The first 2 records, ahead of the listing:
| Gene | reagent | GFP, % of control | viability (ATP), % of control | call |
| --- | --- | --- | --- | --- |
| Serpinb1c (GeneID 380839) | 1 | 77.7 | 57.9 | inactive |
| Serpinb1c (GeneID 380839) | 2 | 28.8 | 16.3 | inactive |

Results, from the start:
| Gene | reagent | GFP, % of control | viability (ATP), % of control | call |
| --- | --- | --- | --- | --- |
| Serpinb1c (GeneID 380839) | 1 | 77.7 | 57.9 | inactive |
| Serpinb1c (GeneID 380839) | 2 | 28.8 | 16.3 | inactive |
| Serpinb1c (GeneID 380839) | 3 | 86.2 | 98.6 | inactive |
| Adam23 (GeneID 23792) | 1 | 97.3 | 56.5 | inactive |
| Adam23 (GeneID 23792) | 2 | 100 | 41.6 | inactive |
| Adam23 (GeneID 23792) | 3 | 90.8 | 76.3 | inactive |
| Lgsn (GeneID 266744) | 1 | 74 | 71.6 | inactive |
| Lgsn (GeneID 266744) | 2 | 61.3 | 84.9 | inactive |
| Lgsn (GeneID 266744) | 3 | 99.6 | 180 | inactive |
| Ccdc60 (GeneID 269693) | 1 | 53.4 | 53.5 | inactive |
| Ccdc60 (GeneID 269693) | 2 | 60.9 | 75.1 | inactive |
| Ccdc60 (GeneID 269693) | 3 | 117 | 91.9 | inactive |
| Uchl3 (GeneID 50933) | 1 | 105 | 112 | inactive |
| Uchl3 (GeneID 50933) | 2 | 58.2 | 70.5 | inactive |
| Uchl3 (GeneID 50933) | 3 | 75.5 | 64 | inactive |
| Il12rb1 (GeneID 16161) | 1 | 74.1 | 69.1 | inactive |
| Il12rb1 (GeneID 16161) | 2 | 63.2 | 34.4 | inactive |
| Cep57l1 (GeneID 103268) | 1 | 76.8 | 85.9 | inactive |
| Cep57l1 (GeneID 103268) | 2 | 126 | 69.5 | active |
| Cep57l1 (GeneID 103268) | 3 | 108 | 131 | inactive |
| Vmn1r18 (GeneID 171199) | 1 | 87.2 | 71 | inactive |
| Vmn1r18 (GeneID 171199) | 2 | 111 | 55.8 | inactive |
| Vmn1r18 (GeneID 171199) | 3 | 98.1 | 111 | inactive |
| Dnajb4 (GeneID 67035) | 1 | 87.4 | 69.6 | inactive |
| Dnajb4 (GeneID 67035) | 2 | 107 | 84.6 | inactive |
| Dnajb4 (GeneID 67035) | 3 | 96.6 | 114 | inactive |
| Cyp2b13 (GeneID 13089) | 1 | 131 | 74.2 | active |
| Cyp2b13 (GeneID 13089) | 2 | 28 | 55.2 | inactive |
| Cyp2b13 (GeneID 13089) | 3 | 94.8 | 100 | inactive |
| Fkbp8 (GeneID 14232) | 1 | 143 | 103 | active |
| Fkbp8 (GeneID 14232) | 2 | 49.5 | 51.4 | inactive |
| Fkbp8 (GeneID 14232) | 3 | 73.8 | 64.5 | inactive |
| Nkain3 (GeneID 269513) | 1 | 49.3 | 60.3 | inactive |
| Nkain3 (GeneID 269513) | 2 | 59.2 | 75.1 | inactive |
| Nkain3 (GeneID 269513) | 3 | 60.1 | 72.1 | inactive |
